Data published in article PMC12240770.
No constants are given. Whether binding was seen depends on the method and setting. In cells and extracts the contact can be indirect. A yes stands for co-enrichment or nearness to the bait. Other partners may have been found.

By UniProt entry, the sequences of proteins in these tests, tags left out.
UniProt Q8BGW1: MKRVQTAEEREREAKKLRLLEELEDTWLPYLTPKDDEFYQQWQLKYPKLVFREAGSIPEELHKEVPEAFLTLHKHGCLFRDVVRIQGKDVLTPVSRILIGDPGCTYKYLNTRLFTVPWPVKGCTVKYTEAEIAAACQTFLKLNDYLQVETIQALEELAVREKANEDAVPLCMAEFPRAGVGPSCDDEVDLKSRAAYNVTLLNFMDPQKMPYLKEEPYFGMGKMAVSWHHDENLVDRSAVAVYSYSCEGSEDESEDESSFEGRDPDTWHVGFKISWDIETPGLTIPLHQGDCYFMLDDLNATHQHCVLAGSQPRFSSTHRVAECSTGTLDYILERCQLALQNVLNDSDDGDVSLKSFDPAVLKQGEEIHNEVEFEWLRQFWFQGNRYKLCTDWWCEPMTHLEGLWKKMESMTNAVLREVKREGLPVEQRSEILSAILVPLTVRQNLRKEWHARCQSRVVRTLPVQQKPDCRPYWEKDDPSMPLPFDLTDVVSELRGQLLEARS

Biological target: fat mass and obesity-associated protein (FTO), endogenous in BMDMs (mouse (endogenous in BMDMs)) (UniProt Q8BGW1)
Test: affinity purification with mass spectrometry; BMDMs with or without LPS for 12 h, RIPA lysate; anti-FTO plus protein-A/G magnetic beads; bands cut from SDS-PAGE, LC-MS

B1: tripartite motif family member TRIM21, endogenous in mouse macrophages (enzyme, UniProt Q62191 1-470)
chain: MSPSTTSKMSLEKMWEEVTCSICLDPMVEPMSIECGHCFCKECIFEVGKNGGSSCPECRQQFLLRNLRPNRHIANMVENLKQIAQNTKKSTQETHCMKHGEKLHLFCEEDGQALCWVCAQSGKHRDHTRVPIEEAAKVYQEKIHVVLEKLRKGKELAEKMEMDLTMQRTDWKRNIDTQKSRIHAEFALQNSLLAQEEQRQLQRLEKDQREYLRLLGKKEAELAEKNQALQELISELERRIRGSELELLQEVRIILERSGSWNLDTLDIDAPDLTSTCPVPGRKKMLRTCWVHITLDRNTANSWLIISKDRRQVRMGDTHQNVSDNKERFSNYPMVLGAQRFSSGKMYWEVDVTQKEAWDLGVCRDSVQRKGQFSLSPENGFWTIWLWQDSYEAGTSPQTTLHIQVPPCQIGIFVDYEAGVVSFYNITDHGSLIYTFSECVFAGPLRPFFNVGFNYSGGNAAPLKLCPLKM
For B1, the binding was “binds”.
